Source: PMC8506970
Substitutions are numbered along the chain they refer to. These are yes or no findings as the source states them, for the method shown. Some results given as binding are weak or reduced against the parent protein; the word gives no strength.

Amino acid sequences for entries named in this document (tags omitted).
UniProt P0A6Y8: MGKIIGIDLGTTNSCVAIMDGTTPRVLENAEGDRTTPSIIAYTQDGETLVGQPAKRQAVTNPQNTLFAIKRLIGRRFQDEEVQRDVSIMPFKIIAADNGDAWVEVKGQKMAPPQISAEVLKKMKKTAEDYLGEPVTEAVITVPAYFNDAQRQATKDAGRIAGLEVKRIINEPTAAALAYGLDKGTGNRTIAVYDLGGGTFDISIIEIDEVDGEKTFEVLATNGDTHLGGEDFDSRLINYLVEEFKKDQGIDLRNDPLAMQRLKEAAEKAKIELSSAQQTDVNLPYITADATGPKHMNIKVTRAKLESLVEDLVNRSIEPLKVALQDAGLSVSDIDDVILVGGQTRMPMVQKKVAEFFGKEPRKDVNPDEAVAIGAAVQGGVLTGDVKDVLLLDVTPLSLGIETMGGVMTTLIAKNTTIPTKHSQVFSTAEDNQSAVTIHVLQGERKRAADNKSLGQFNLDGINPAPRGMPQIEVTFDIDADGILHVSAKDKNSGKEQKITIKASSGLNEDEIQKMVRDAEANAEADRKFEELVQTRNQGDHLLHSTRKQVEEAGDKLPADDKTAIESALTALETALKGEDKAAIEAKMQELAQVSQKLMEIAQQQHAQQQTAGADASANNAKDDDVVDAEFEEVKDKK
UniProt P0A6F5: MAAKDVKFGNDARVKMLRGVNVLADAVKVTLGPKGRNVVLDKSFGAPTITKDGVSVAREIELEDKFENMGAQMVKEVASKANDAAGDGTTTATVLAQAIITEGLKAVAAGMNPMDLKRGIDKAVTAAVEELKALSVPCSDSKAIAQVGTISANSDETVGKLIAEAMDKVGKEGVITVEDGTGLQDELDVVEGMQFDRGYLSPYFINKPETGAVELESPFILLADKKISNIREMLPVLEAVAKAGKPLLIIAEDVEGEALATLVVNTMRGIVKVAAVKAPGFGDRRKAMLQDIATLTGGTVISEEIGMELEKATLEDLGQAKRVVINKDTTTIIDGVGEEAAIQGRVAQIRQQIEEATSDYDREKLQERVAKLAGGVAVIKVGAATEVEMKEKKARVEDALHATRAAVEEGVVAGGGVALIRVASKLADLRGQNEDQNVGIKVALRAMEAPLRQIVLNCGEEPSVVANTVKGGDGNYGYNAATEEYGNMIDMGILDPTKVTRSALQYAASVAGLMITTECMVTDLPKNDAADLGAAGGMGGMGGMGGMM

Assays:
Test in all cases: co-purification by affinity chromatography (StrepII tag), SDS-PAGE; proteins expressed in E. coli ArcticExpress (DE3) at 10 °C, MgCl2 added to the culture; StrepII affinity chromatography of the lysate; SDS-PAGE of the eluate
[1] = target: T1, mATGL288 (F17A)-Str (mouse) (UniProt Q8BJ56)
T1 sequence: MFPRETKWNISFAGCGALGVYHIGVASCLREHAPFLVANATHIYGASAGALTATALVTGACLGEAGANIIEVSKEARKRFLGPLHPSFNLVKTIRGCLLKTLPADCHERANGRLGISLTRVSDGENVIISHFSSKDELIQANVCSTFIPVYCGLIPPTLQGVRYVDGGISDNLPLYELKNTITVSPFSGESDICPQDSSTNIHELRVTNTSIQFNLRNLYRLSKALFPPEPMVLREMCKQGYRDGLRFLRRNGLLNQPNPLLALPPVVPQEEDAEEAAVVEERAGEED

[2] = target: T2, mATGL288 (S47A)-Str (mouse) (UniProt Q8BJ56)
T2 sequence: T1 sequence with A17F, S47A

[3] = target: T3, mATGL288-Str (expression product of pST44-SMT3-TEV-mATGL288-STR) (mouse) (UniProt Q8BJ56)
T3 sequence: T1 sequence with A17F

Measured: binding

DnaK (from UniProt P0A6Y8 1-638)
binds: all assays above

GroEL (from UniProt P0A6F5 1-548)
binds: all assays above
